Data from US20210205403A1.
These are yes or no findings as the source states them, for the method shown. Some entries that bind do so weakly or less than the wild type.

By UniProt entry, the sequences of proteins in these tests, tags left out. Where a name states a change or a piece, a line headed by the entry shows the natural chain unless it says otherwise. Chains listed by the source or under a name are the forms on record and can include a tag or linker.
UniProt Q00987: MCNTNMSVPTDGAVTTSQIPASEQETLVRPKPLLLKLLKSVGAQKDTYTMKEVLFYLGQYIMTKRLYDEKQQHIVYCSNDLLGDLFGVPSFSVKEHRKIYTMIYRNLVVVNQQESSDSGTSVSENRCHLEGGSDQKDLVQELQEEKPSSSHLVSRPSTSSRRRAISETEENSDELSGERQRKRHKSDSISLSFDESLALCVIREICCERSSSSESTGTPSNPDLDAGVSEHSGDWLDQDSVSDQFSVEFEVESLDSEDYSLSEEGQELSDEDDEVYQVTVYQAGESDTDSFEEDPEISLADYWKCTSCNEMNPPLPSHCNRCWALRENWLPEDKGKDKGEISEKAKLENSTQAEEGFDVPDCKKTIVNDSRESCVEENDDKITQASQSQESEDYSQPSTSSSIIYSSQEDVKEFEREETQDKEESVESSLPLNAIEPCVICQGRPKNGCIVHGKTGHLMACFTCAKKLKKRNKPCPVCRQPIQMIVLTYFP
Full length HDM-2 with the sequence Cys-Ile-Leu-Lys (CAAX sequence) (Q00987, form named): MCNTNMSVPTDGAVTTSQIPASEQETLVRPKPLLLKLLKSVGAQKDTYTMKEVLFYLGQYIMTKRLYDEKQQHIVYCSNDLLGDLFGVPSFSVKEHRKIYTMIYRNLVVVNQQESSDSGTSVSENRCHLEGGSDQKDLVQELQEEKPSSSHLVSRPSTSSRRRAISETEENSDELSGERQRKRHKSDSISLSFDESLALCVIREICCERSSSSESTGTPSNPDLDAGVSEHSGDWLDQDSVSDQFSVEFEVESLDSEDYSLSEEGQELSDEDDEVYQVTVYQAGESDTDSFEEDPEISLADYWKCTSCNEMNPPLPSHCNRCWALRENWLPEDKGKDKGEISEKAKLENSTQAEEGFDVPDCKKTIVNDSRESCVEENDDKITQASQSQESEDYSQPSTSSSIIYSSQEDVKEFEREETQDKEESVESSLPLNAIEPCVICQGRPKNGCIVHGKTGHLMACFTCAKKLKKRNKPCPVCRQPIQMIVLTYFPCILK

Assays:
[1] = target: HDM-2 in the cancer cell membrane (human) (UniProt Q00987); experiment: confocal microscopy of PNC-27-treated cancer cells, FITC-DO-1 (green) and red-labelled anti-HDM-2 antibody; yellow overlap in the membrane
[2] = target: Full length HDM-2 with the sequence Cys-Ile-Leu-Lys (CAAX sequence) (human) (UniProt Q00987); experiment: confocal microscopy of MCF-10-2A cells transfected with full-length HDM-2-CAAX, stained with DO-1 and anti-HDM-2 antibody plus fluorescent secondary antibodies
[3] = target: Full length HDM-2 with the sequence Cys-Ile-Leu-Lys (CAAX sequence) (human) (UniProt Q00987); experiment: confocal microscopy of transfected MCF-10-2A cells

binding [1]: binds
binding [2]: binds
binding [3]: binds
B1: PNC-27 (p53 aa12-26-MRP) (peptide)
peptide: PPLSQETFSDLWKLLKKWKMRRNQFWVKVQRG
